Experiment [1] addresses Human IL-4R (human) (UniProt P24394). Description: binding activity assay of formulation samples S1-S9 etc. after 40℃ for 1 month (method not described; values in Table 3.4, not shown).
Experiment [2] has the same target. Description: binding activity assay of optimised formulation samples (O series) after 40℃ for 1 month (method not described; values in Table 4.4, not shown).

By UniProt entry, the sequences of proteins in these tests, tags left out. Residues count along the entry.
UniProt P24394, residues 26-232: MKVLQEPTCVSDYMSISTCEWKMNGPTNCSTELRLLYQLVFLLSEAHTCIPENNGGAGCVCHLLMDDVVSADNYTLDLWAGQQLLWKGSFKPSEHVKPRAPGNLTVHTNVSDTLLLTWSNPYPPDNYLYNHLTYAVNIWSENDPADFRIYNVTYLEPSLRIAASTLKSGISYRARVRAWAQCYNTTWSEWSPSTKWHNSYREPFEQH

Results are given in words; binding and its absence hold for the method and conditions named. Some results given as binding are weak or reduced against the parent protein; the word gives no strength.

B1: 抗人IL-4Rα单克隆抗体 (antibody, human IgG4 S228P, kappa, V domains shown)
VH: EVQLVESGGGLVQPGGSLRLSCAASGFTFSDYGMHWVRQAPGKGLEWVSYISSGSTTIYYADTVKGRFTISRDNAKNSLYLQMNSLRAEDTAVYYCARISTVVAKRYAMDYWGQGTLVTVSS
VL: DIQMTQSPSSLSASVGDRVTITCRASQDISNYLNWYQQKPGKAPKLLIYYTSRLHSGVPSRFSGSGSGTDFTLTISSLQPEDIATYYCQQINALPFTFGQGTKLEIKR
As for B1, the binding result in experiment [1] and in experiment [2] was “binds” each time.

For the origin of these results see CN118105485A.
